These are literature values, as cited in US20210299202A1, “FORMULATION OF C[…]” (CARDINAL ADVISORY LIMITED, priority 2018, published 2021).

The conditions of data set [1]: inhalation of marijuana smoke.
For data set [2] the following is noted: oral administration, after extensive liver metabolism.

On to `CCCCCc1cc(O)c2c(c1)OC(C)(C)[C@@H]1CCC(C)=C[C@@H]21` [THC, delta-9-tetrahydrocannabinol], for which the systemic bioavailability in data set [1] is recorded as 10-35%. Moreover, the oral bioavailability in data set [2] is listed as 2-14%.
